According to article PMC4169405:

T1: N-terminally strep-tagged HdrD1, heterodisulfide reductase, subunit D (Methanosarcina acetivorans C2A) (UniProt Q8TSV7)
T1 sequence: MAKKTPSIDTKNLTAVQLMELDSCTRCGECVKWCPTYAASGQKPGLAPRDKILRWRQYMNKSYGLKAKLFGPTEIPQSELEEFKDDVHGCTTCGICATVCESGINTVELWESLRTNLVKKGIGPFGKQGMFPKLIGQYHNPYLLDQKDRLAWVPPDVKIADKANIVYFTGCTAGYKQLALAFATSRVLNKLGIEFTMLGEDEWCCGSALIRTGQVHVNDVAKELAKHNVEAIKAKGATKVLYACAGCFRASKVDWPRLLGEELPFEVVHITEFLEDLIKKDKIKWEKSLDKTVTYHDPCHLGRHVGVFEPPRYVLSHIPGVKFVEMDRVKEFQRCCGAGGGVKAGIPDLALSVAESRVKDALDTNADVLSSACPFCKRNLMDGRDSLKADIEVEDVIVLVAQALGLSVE

B1: CdhC, acetyl-CoA decarbonylase/synthase complex subunit beta (MA1014) (protein, UniProt Q8TRZ6 1-469)
chain: MVEFPFEISPMFEGERVRKEGMFVELGGPKSLGLELVRAKPMDEIEDDKVTIVGPDLKEMEEGKTYPWAMIFNIGGELVEPDLESVVERRVHDFINYCQGIMHLNQRYDVWMRVSKDTAAKMDSFEPFGQAVMMLFKTELPFIEKMQVTFYTEQAEVEKQMETAKEIFKARDERTKDLHDEDVDVFYGCTLCQSFAPTNVCVVSPDRVSLCGAINWFDGRAAAKVDPEGPQFEIAKGDLLDANTGEYTGVNDIAKKLSAGEFDKIKLHSFFDSPHTSCGCFEVVGFYIPEVDGIGWVNREYQGMAPNGIGFSTMAGQTGGGKQIVGFLGIGINYFYSPKFIQADGGWNRVVWLPSMLKDKIIDTIPEDLKDKIATENDSTDIESLKAFLQEKGHPVVATWAAEEEEEEEEEEEEEVAVAAAPMMMPAAGFQMPAMPMMSGGSSGGIKLTFKNAKITIDKMIISEKKEKK
B2: CdhC, acetyl-CoA decarbonylase/synthase complex subunit beta (MA3862) (protein, UniProt Q8TJC4 1-470)
chain: MAEFPFEISPMFEGERVRKEGMFVELGGPKSLGLELVRAKPMDEIEDDKVTIVGPDLKEMEEGKTYPWAMIFNIGGELVEPDLESVVERRVHDFINYCQGIMHLNQRYDVWMRVSKDTAAKMDSFEPFGQAVMMLFKTELPFIEKMQVTFYTEQAEVEKQLEEAKAIFKARDERTKDLHDEDVDVFYGCTLCQSFAPTNVCVVSPDRVSLCGAINWFDGRAAAKVDPEGPQFEITKGDLIDAEKGEYTGVNDIAKKLSAGEFDKIKLHSFFDAPHTSCGCFEVVGFYIPEVDGIGWVNREYQGMAPNGIGFSTMAGQTGGGKQIVGFLGIGINYFYSPKFIQADGGWNRVVWLPSMLKDKIAETIPEDLKDKIATENDATDIESLKAFLQEKGHPVVATWAAAEEEEEEEEEEEEEVAVAAAPMMMPAAGFQMPAMPMMSGGSSGGIKLTFKNAKITIDKMIISEKKEKK
B3: Mer, methylenetetrahydromethanopterin reductase (enzyme, UniProt Q8TJP7 1-328)
chain: MKFGIEFVPSDPALKIAYYAKLSEQQGFDYVWITDHYNNRDVYSTLTVLALNTNSIKIGSGVTNSYTRNPAITASSIASIAEISGGRAVLGLGPGDKATFDAMGIAWEKPLATTKEAIQAIRDFIAGKKVSMDGEMVKFAGAKLAFKAGNVPIYMGAQGPKMLELAGEVADGVLINASHPKDFEVAVEQIRKGAEKVGRDPSEVDVTAYACFSIDKDPAKAINAAKVVVAFIVAGSPDLVLERHGIPVDAKKQIGDAIAKGDFGALMGGLVTPQMIEAFAICGTPEDCMKRIKDLEAIGVTQIVAGSPIGPEKEKAIKLIGKEIIAKM
B4: molecular chaperone DnaK (protein, UniProt Q8TQR2 1-617)
chain: MAKILGIDLGTTNSCMAVMEGGDAVVLPNAEGSRTTPSVVGFSKKGEKLVGQVAKRQAISNPENTVYSIKRHMGEANYKVTLNGKTYTPQEISAMILQKLKTEAEAYLGETIKQAVITVPAYFNDAQRQATKDAGSIAGLEVLRIINEPTAASLAYGLDKGDVDQKILVYDLGGGTFDVSILELGGGVFEVKSTSGDTHLGGDDFDQRVIDHLLAEFKKTEGIDLSKDKAILQRLKDAAEKAKIELSGVTVTNINLPFLTVGPDGEPKHMDIDLTRAQFQKMTEDLLEKTLVSMRRALSDSKLTPNDLDKVILVGGATRMPAVVELVENFTGKKPYKNINPDEAVAIGAAIQAGVLGGEVKDVLLLDVTPLTLGIETLGGIATPLIQRNTTIPTKKSQIFSTAADNQPSVEIHVLQGERGIASENKTLGRFTLDGIPPAPRGIPQIEVAFDIDANGILHVNAKDLGTGKEQSISIQKPGGLSDAEIERMVKDAELHAEEDKKRKEEVETRNNAEALINAAEKTIKEAGDVATEDQKSKVNAAIEDLKKALEGKDTEEVKAKTEALQEAVYPISTAMYQKAQQEAQQASGEAGSADARGPDETVVDADYEVVDDEKRK

Each binder was assayed against T1, N-terminally strep-tagged HdrD1, heterodisulfide reductase, subunit D (Methanosarcina acetivorans C2A) (assay: affinity purification with mass spectrometry; in vivo DMS crosslinking of methanol-grown M. acetivorans cells, whole lysate batch-bound to streptavidin agarose resin, biotin elution, trypsin digest, LC-MS/MS with MASCOT; proteins found in mock purifications from control cells subtracted; biological duplicates; room temperature, anaerobic).
For B1, the binding was “binds”.
B2 was tested, and the binding was “binds”.
For B3, the binding was “binds”.
B4 was tested, and the binding was “binds”.

Results are given in words; binding and its absence hold for the method and conditions named. In cells and extracts the contact can be indirect. These calls come from enrichment with a bait or labelling near it, and not all partners need be listed. Tags and fused reporters may be left off the sequences shown.
